# Measurements reported in PubChem BioAssay AID652243 (Drosophila RNAi Screening Center, 2013)
# Assay: 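Knock-downs that decrease or increase androgen receptor reporter signal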 (primary screen)
# Cells: Drosophila S2R+ cells
# Knock-down reagent: long dsRNA against Drosophila genes
# Timing: 72 h (48 h, then 24 h hormone)
# Challenge: synthetic androgen R1881 at 10 nM for 24 h
# Read-out: 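Firefly light from an androgen-responsive reporter and Renilla control light per well, raw and unnormalised, for each of two replicates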
# Scale: firefly reporter light: higher = more light from androgen-responsive reporter; Renilla control light: higher = more constitutive control signal (cell number, transfection)
# Active means: 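Across duplicate plates, a knock-down whose log firefly/Renilla ratio shifted a set fold down or up from the GFP/LacZ control mean was a hit; the downward cut appears as both 1.5 and 3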
# Meaning of the calls: active = hit: reporter lowered or raised; inactive = no hit
# The deposit covers about 24,000 reagents; below is a random part of those that have a named target and a result. In the full data, 246 (1%) got an active call. 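Plates not normalised; calls are printed but the firefly/Renilla ratio behind them is not deposited; fold cut for lowering reported inconsistently.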 Raw values are not corrected between plates. Entries without a mark were called inactive. A plus sign joins genes that one reagent is predicted to hit. The record does not give: the amount of reagent.
The opening 3 entries, ahead of the listing:
gene knocked down,amplicon,"firefly reporter light, replicate 1","firefly reporter light, replicate 2","Renilla control light, replicate 1","Renilla control light, replicate 2"
TpnC41C (Troponin C at 41C),DRSC04916,2.82e5,3.67e5,1.96e6,1.95e6
CG5347,DRSC19942,7.18e5,7.42e5,4.85e6,5.37e6
CG7906,DRSC10928,6.84e5,5.11e5,1.38e6,1.40e6

The listing, repeating the preview:
gene knocked down,amplicon,"firefly reporter light, replicate 1","firefly reporter light, replicate 2","Renilla control light, replicate 1","Renilla control light, replicate 2"
TpnC41C (Troponin C at 41C),DRSC04916,2.82e5,3.67e5,1.96e6,1.95e6
CG5347,DRSC19942,7.18e5,7.42e5,4.85e6,5.37e6
CG7906,DRSC10928,6.84e5,5.11e5,1.38e6,1.40e6
CG7906,DRSC29526,3.02e5,3.02e5,6.34e5,6.34e5
Ifrd1 (Interferon-related developmental regulator 1),DRSC00415,1.04e5,1.54e5,8.53e5,9.52e5
Ifrd1 (Interferon-related developmental regulator 1),DRSC00566,1.20e5,1.01e5,1.00e6,8.13e5
CG14829,DRSC10199,1.33e5,1.12e5,1.57e6,1.60e6
CG31093,DRSC15689,1.14e5,1.44e5,1.63e6,1.94e6
CG12268,DRSC14491,1.13e5,1.61e5,1.55e6,1.59e6
CG12268,DRSC28755,9.19e5,7.55e5,1.25e6,1.49e6
"Adat1 (Adenosine deaminase, tRNA-specific 1)",DRSC03479,2.57e5,2.05e5,1.61e6,1.70e6
"Adat1 (Adenosine deaminase, tRNA-specific 1)",DRSC27220,2.29e5,2.28e5,5.13e5,6.33e5
MAPk-Ak2 (MAP kinase activated protein-kinase-2),DRSC18678,1.76e5,1.82e5,2.20e6,2.12e6
MAPk-Ak2 (MAP kinase activated protein-kinase-2),DRSC29642,3.66e5,3.70e5,6.93e5,6.93e5
tou (toutatis),DRSC22710,9.89e5,7.07e5,1.10e6,7.08e5
tou (toutatis),DRSC27228,2.19e5,2.59e5,3.91e5,4.23e5
koko + Vti1b,DRSC16283,1.34e5,72953,1.04e6,7.05e5
koko + Vti1b,DRSC16284,66094,1.09e5,1.05e6,1.36e6
CG11878,DRSC14422,1.62e5,2.11e5,1.63e6,1.88e6
CG11878,DRSC24563,7.08e5,7.01e5,8.01e5,7.57e5
HP1b (Heterochromatin Protein 1b),DRSC18418,2.28e5,2.93e5,2.60e6,3.45e6
HP1b (Heterochromatin Protein 1b),DRSC29826,5.20e5,4.01e5,1.66e6,1.77e6
CG17637,DRSC11740,2.13e5,1.91e5,1.88e6,1.92e6
Atu (Another transcription unit),DRSC12123,18936,32455,2.06e5,2.46e5
Cpr64Aa (Cuticular protein 64Aa),DRSC08460,2.32e5,2.21e5,2.11e6,1.69e6
Cpr64Aa (Cuticular protein 64Aa),DRSC23801,8.06e5,5.58e5,5.35e5,4.59e5
CG12164,DRSC06115,1.09e6,1.14e6,1.09e6,1.17e6
CG12164,DRSC21777,3.83e5,3.37e5,1.64e6,1.62e6
CG12164,DRSC25698,1.20e6,1.40e6,1.30e6,1.36e6
CG9518,DRSC20194,4.58e5,4.75e5,3.11e6,3.22e6
CG9518,DRSC27096,4.55e5,3.38e5,8.05e5,7.16e5
CG6005,DRSC15945,90476,88272,7.73e5,6.75e5
CG42813,DRSC15939,83504,80317,8.15e5,7.77e5
Nplp4 (Neuropeptide-like precursor 4),DRSC00391,1.39e5,1.58e5,9.71e5,1.13e6
CG7044,DRSC16180,3.05e5,2.76e5,4.06e6,3.98e6
EMC2B (ER membrane protein complex subunit 2B),DRSC15506,1.80e5,1.85e5,1.99e6,2.22e6
S-Lap3 (Sperm-Leucylaminopeptidase 3),DRSC10956,5.88e5,6.07e5,5.48e5,5.81e5
S-Lap3 (Sperm-Leucylaminopeptidase 3),DRSC23958,5.41e5,3.37e5,7.36e5,6.77e5
CG17121,DRSC15176,1.74e5,2.52e5,2.23e6,2.65e6
pHCl-1 (pH-sensitive chloride channel 1),DRSC09888,1.33e5,1.33e5,1.69e6,1.48e6
pHCl-1 (pH-sensitive chloride channel 1),DRSC09991,93639,77597,1.44e6,1.79e6
pHCl-1 (pH-sensitive chloride channel 1),DRSC10589,3.49e5,3.50e5,2.65e6,1.80e6
pHCl-1 (pH-sensitive chloride channel 1),DRSC29802,4.33e5,4.70e5,1.36e6,1.91e6
Pngl (PNGase-like),DRSC04914,3.66e5,3.89e5,2.72e6,2.68e6
B52,DRSC14121,5.99e5,5.40e5,1.93e6,1.71e6
B52,DRSC25482,7.07e5,7.60e5,1.07e6,1.07e6
Pex2 (Peroxin 2),DRSC10770,9.24e5,8.13e5,1.38e6,1.87e6
wek (weckle),DRSC03561,1.01e6,1.17e6,1.43e6,1.80e6
Ir94d (Ionotropic receptor 94d),DRSC21568,1.05e6,9.05e5,2.15e6,1.91e6
SelT (Selenoprotein T),DRSC02732,4.72e5,8.14e5,1.49e6,1.49e6
SelT (Selenoprotein T),DRSC26033,3.23e5,2.25e5,8.92e5,7.02e5
mid (midline),DRSC02977,4.78e5,4.47e5,3.70e6,2.80e6
mid (midline),DRSC21493,9.60e5,6.06e5,4.16e6,2.49e6
mid (midline),DRSC25557,4.90e5,7.11e5,4.60e5,6.49e5
CG33333,DRSC13233,1.17e5,1.60e5,2.28e5,2.17e5
beat-IIb (beaten path IIb),DRSC13219,64310,10612,1.15e5,1.35e5
beat-IIb (beaten path IIb),DRSC14816,1.93e5,1.46e5,2.64e6,2.21e6
beat-IIb (beaten path IIb),DRSC15546,2.21e5,2.79e5,2.83e6,3.15e6
